Drug screen on melanoma cell lines: apoptosis marker

Data from the primary screen of doi:10.1371/journal.pone.0140310, rounded.

Drug key:
TCS401, 8.33 µM: O=C(O)C(=O)Nc1sc2c(c1C(=O)O)CCNC2
pazopanib, 2 µM: Cc1ccc(Nc2nccc(N(C)c3ccc4c(C)n(C)nc4c3)n2)cc1S(N)(=O)=O
XAV939, 10 µM: Oc1nc(-c2ccc(C(F)(F)F)cc2)nc2c1CSCC2
midostaurin, 0.4 µM: CO[C@@H]1[C@H](N(C)C(=O)c2ccccc2)C[C@H]2O[C@]1(C)n1c3ccccc3c3c4c(c5c6ccccc6n2c5c31)C(=O)NC4
GW9662, 10 µM: O=C(Nc1ccccc1)c1cc([N+](=O)[O-])ccc1Cl
sorafenib, 2 µM: CNC(=O)c1cc(Oc2ccc(NC(=O)Nc3ccc(Cl)c(C(F)(F)F)c3)cc2)ccn1
AZD7762, 0.1 µM: NC(=O)Nc1cc(-c2cccc(F)c2)sc1C(=O)N[C@H]1CCCNC1
pioglitazone, 10 µM: CCc1ccc(CCOc2ccc(CC3SC(=O)NC3=O)cc2)nc1 (centres undefined)
CP-690550, 5 µM: C[C@@H]1CCN(C(=O)CC#N)C[C@@H]1N(C)c1ncnc2[nH]ccc12

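The test systems are human melanoma cell lines, treated with two drugs together for 72 h and then stained and imaged. Values are the share of nuclei positive for cleaved PARP as a percentage of the same share in the DMSO control: 100 is the control level, higher means more apoptosis. Concentrations were fixed for each drug; these are the higher of two levels. No replicate spread is given; individual values may be noisy. The marker varies much from line to line, for technical or biological reasons.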
Only some of the drugs and lines screened are listed, without regard to their results.

For midostaurin and GW9662 the values were COLO 829: 201; UACC-257: 155; C32: 142; IST-MEL1: 46.4.
For sorafenib and AZD7762 the values were COLO 829: 84.6; UACC-257: 85.0; C32: 388; IST-MEL1: 227.
For pioglitazone and TCS401 the values were COLO 829: 125; UACC-257: 47.3; C32: 85.1; IST-MEL1: 175.
For GW9662 and XAV939 the values were COLO 829: 149; UACC-257: 52.8; C32: 80.7; IST-MEL1: 77.3.
For CP-690550 and midostaurin the values were COLO 829: 131; UACC-257: 133; C32: 101; IST-MEL1: 166.
For pazopanib and GW9662 the values were COLO 829: 142; UACC-257: 87.0; C32: 78.8; IST-MEL1: 78.3.
For pazopanib and sorafenib the values were COLO 829: 148; UACC-257: 94.6; C32: 59.3; IST-MEL1: 76.1.
For CP-690550 and GW9662 the values were COLO 829: 190; UACC-257: 27.4; C32: 101; IST-MEL1: 79.1.
For XAV939 and sorafenib the values were COLO 829: 70.5; UACC-257: 59.5; C32: 79.5; IST-MEL1: 134.
For XAV939 and pazopanib the values were COLO 829: 76.8; UACC-257: 98.6; C32: 80.8; IST-MEL1: 61.2.
For AZD7762 and pazopanib the values were COLO 829: 103; UACC-257: 119; C32: 387; IST-MEL1: 66.7.
For AZD7762 and GW9662 the values were COLO 829: 102; UACC-257: 53.9; C32: 308; IST-MEL1: 128.
For XAV939 and AZD7762 the values were COLO 829: 111; UACC-257: 29.5; C32: 115; IST-MEL1: 30.9.
For XAV939 and pioglitazone the values were COLO 829: 94.3; UACC-257: 35.9; C32: 233; IST-MEL1: 41.0.
For sorafenib and TCS401 the values were COLO 829: 45.6; UACC-257: 121; C32: 138; IST-MEL1: 146.
For sorafenib and CP-690550 the values were COLO 829: 53.9; UACC-257: 80.1; C32: 19.4; IST-MEL1: 48.3.
For pioglitazone and pazopanib the values were COLO 829: 80.9; UACC-257: 109; C32: 77.1; IST-MEL1: 48.6.
For midostaurin and AZD7762 the values were COLO 829: 87.6; UACC-257: 43.2; C32: 245; IST-MEL1: 143.
For pioglitazone and GW9662 the values were COLO 829: 104; UACC-257: 39.5; C32: 137; IST-MEL1: 62.3.
For CP-690550 and XAV939 the values were COLO 829: 44.3; UACC-257: 50.7; C32: 80.8; IST-MEL1: 66.6.
For sorafenib and GW9662 the values were COLO 829: 84.6; UACC-257: 72.0; C32: 65.5; IST-MEL1: 109.
For TCS401 and AZD7762 the values were COLO 829: 124; UACC-257: 22.2; C32: 289; IST-MEL1: 53.1.
For sorafenib and midostaurin the values were COLO 829: 430; UACC-257: 135; C32: 216; IST-MEL1: 1370.
For midostaurin and TCS401 the values were COLO 829: 159; UACC-257: 30.7; C32: 99.5; IST-MEL1: 87.0.
For pioglitazone and AZD7762 the values were COLO 829: 207; UACC-257: 88.2; C32: 157; IST-MEL1: 249.
For CP-690550 and pazopanib the values were COLO 829: 52.2; UACC-257: 194; C32: 74.8; IST-MEL1: 184.
For pioglitazone and CP-690550 the values were COLO 829: 19.8; UACC-257: 71.3; C32: 88.6; IST-MEL1: 57.8.
For sorafenib and pioglitazone the values were COLO 829: 107; UACC-257: 232; C32: 78.7; IST-MEL1: 51.4.
For pioglitazone and midostaurin the values were COLO 829: 80.2; UACC-257: 146; C32: 146; IST-MEL1: 89.4.
For XAV939 and midostaurin the values were COLO 829: 95.7; UACC-257: 30.5; C32: 112; IST-MEL1: 332.
For TCS401 and pazopanib the values were COLO 829: 101; UACC-257: 37.9; C32: 83.8; IST-MEL1: 112.
For TCS401 and GW9662 the values were COLO 829: 170; UACC-257: 23.6; C32: 74.9; IST-MEL1: 536.
For XAV939 and TCS401 the values were COLO 829: 74.6; UACC-257: 46.0; C32: 112; IST-MEL1: 58.5.
For pazopanib and midostaurin the values were COLO 829: 107; UACC-257: 103; C32: 87.2; IST-MEL1: 63.9.
For TCS401 and CP-690550 the values were COLO 829: 83.4; UACC-257: 66.3; C32: 87.3; IST-MEL1: 46.7.

The first 3 entries again:

Combination,COLO 829,UACC-257,C32,IST-MEL1
midostaurin and GW9662,201,155,142,46.4
sorafenib and AZD7762,84.6,85.0,388,227
pioglitazone and TCS401,125,47.3,85.1,175